For at least one entry, the source does not settle the construct or the ends of the probe. For some assays here: A negative result means that nothing was seen under these conditions. For some assays here: Weaker means in comparison with the reference protein, sequence or condition of that experiment.
Assays:
[1] = biological target: HNF-4 full length (pf7 cDNA) (Rattus norvegicus) (UniProt P22449); test: EMSA; conditions: protein translated in vitro, label: 32P
[2] = biological target: HNF-4 (purified from rat liver) (Rattus norvegicus) (UniProt P22449); test: EMSA; conditions: purified native protein, label: 32P
[3] = biological target: HNF-4 (purified from rat liver) (Rattus norvegicus) (UniProt P22449); test: competition with a labelled probe; conditions: purified native protein
[4] = biological target: HNF-4 PflM I truncation (C-terminal 36 aa removed) C-terminal truncation, 36 aa shorter (template cut at nt 1309) (Rattus norvegicus) (UniProt P22449); test: EMSA; conditions: protein translated in vitro, label: 32P
[5] = biological target: HNF-4 Hga I truncation C-terminal truncation (template cut at nt 1171) (Rattus norvegicus) (UniProt P22449); test: EMSA; conditions: protein translated in vitro, label: 32P
[6] = no better than unrelated oligo at 50-500-fold excess

By UniProt entry, the sequences of proteins in these tests, tags left out. Where a name states a change or a piece, a line headed by the entry shows the natural chain unless it says otherwise.
UniProt P22449: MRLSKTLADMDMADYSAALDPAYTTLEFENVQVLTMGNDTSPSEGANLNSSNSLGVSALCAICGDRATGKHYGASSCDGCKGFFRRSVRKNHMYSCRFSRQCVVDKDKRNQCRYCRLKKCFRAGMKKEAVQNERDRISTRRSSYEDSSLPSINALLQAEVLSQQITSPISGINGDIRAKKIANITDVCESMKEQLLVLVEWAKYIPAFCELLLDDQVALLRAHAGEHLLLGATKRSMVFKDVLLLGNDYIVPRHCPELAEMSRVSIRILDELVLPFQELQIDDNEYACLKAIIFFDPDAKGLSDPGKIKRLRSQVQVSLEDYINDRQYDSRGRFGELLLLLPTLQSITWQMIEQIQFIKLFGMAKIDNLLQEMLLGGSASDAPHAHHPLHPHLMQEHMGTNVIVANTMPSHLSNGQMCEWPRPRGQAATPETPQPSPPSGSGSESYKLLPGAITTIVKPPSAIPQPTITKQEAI

“AGCAAACAGGGGCTAAGTCCACTGGCTG (double strand) [LF-A1]”: binds ([1]; stronger signal than HNF4P); binds ([2]; signal stronger than HNF4P, somewhat lower affinity than APF1).
“AGCTCTCAGAACACTGTGTTCTGA (double strand) [GRE]”: no binding [3, 6].
“AGCTCTCAGGTCACTGTGACCTGA (double strand) [ERE]”: binds more weakly ([3]; competes -151 to -130 probe only slightly better than unrelated oligo, 50-500-fold excess, much less than HNF4D).
“AGCTCTCAGGTCATGACCTGA (double strand) [TRE]”: no binding [3, 6].
“GATCCTCGGGAAAGGGAAACCGAAACTGAAGCC (double strand) [015]”: no binding ([3]; unrelated competitor control).
“TCGACCCTAGGCAAGGTTCATATGGCC (double strand) [HNF4P]”: binds ([4]; gel not shown); binds [1]; binds ([5]; gel not shown). “TCGACCCTAGGCAAGGTTCATATGGCC (double strand) [HNF4P]”: binds ([2]; weaker than APF1).
“TCGACTCTCTGCAAGGGTCATCAGTAC (double strand) [HNF4D]”: binds more weakly ([2]; weakest of the four HNF-4 sites).
“TCGAGCGCTGGGCAAAGGTCACCTGC (double strand) [APF1]”: binds [4]; binds ([1]; sequence-specific, binds as homodimer); binds [5]. “TCGAGCGCTGGGCAAAGGTCACCTGC (double strand) [APF1]”: binds ([2]; strongest: APF1 > -151 to -130 = HNF4P > HNF4D).
“TCGAGGCAAGGTTCATATTTGTGTAG (double strand) [-151 to -130 TTR]”: binds ([1]; co-translation with truncations gives heterodimer bands, gel not shown); binds ([2]; weaker than APF1, equal to HNF4P).

Reference: patent publication US20030108912, “Liver enriched transcription factor” (published 2003)
